Reference: paper PMC9527247
No constants are given. Whether binding was seen depends on the method and setting. Binding seen in cells or lysates may run through a third protein. Some binding calls cover weakened binding; strength is not graded here.

Chains of the proteins cited; added tags and fusions are not shown.
UniProt Q06330: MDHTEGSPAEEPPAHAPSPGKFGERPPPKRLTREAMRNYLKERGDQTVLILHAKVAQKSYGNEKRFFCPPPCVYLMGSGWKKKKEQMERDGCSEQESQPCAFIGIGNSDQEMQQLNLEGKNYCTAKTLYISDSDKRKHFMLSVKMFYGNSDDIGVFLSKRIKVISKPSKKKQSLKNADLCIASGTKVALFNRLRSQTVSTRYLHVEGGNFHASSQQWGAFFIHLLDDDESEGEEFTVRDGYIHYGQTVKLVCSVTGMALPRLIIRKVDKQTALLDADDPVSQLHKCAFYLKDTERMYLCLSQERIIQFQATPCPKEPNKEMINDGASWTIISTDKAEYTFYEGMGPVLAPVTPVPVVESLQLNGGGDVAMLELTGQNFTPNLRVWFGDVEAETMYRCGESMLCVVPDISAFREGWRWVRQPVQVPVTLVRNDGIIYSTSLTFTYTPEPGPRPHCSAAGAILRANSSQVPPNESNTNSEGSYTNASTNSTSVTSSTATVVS
UniProt Q9Y294: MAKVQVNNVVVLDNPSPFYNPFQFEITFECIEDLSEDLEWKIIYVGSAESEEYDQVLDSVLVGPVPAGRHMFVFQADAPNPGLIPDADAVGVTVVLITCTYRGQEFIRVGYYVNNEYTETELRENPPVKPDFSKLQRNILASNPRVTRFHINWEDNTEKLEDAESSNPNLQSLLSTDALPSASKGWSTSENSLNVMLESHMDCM

Molecular target: recombination signal-binding immunoglobulin kappa J region (RBPJ) (human (endogenous in K562 and MEG01)) (UniProt Q06330)
Experiment: co-IP; protein extracts of K562 and MEG01 cells incubated with 5 ug of antibody; Pierce Co-Immunoprecipitation Kit; immunoblot with anti-ASF1A and anti-RBPJ

binding: binds
Substance: ASF1A (anti-silencing function 1 A) (from UniProt Q9Y294 1-204)
